According to patent publication US20070292347A1 (LONDON HEALTH SCIENCES CENTRE RESEARCH, published 2007):
No constants are given. Whether binding was seen depends on the method and setting. A result given as binding can be weak or reduced; the word gives no strength.

Target: purified HLA-DRB1*0701 molecule (human)
Experiment: peptide competition assay on purified MHC class II

B1: Vim 65-77, human vimentin peptide 65-77 (peptide)
peptide: SAVRARSSVPGVR
notes: Synthetic peptide (Genemed Synthesis); also called Vimentin 65-77; unmodified vimentin peptide
With B1 the binding was “binds”.
